This note sets out measurements from patent US20230310500A1.

This experiment deals with T1, EpCAM protein (UniProt P16422).
T1 sequence (looked up): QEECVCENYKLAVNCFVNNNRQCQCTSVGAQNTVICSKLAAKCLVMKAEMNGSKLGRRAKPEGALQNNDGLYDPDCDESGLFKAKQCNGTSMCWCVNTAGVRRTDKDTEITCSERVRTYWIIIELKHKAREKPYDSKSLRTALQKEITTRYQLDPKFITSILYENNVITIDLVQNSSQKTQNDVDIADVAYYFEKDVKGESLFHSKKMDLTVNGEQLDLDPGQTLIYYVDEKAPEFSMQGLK
As to the kind of experiment: flow cytometry of transduced T cells stained with EpCAM protein, then anti-EpCAM-FITC; untransduced T cells as reference. A general note: In flow cytometry, cells or beads pass a laser one at a time.

Results are given in words; binding and its absence hold for the method and conditions named. Some binding calls cover weakened binding; strength is not graded here.

B1: chimeric antigen receptor targeting EpCAM (EpCAM-CAR) (protein)
chain: QVQLVQSGAEVKKPGASVKVSCKASGYTFTNYWINWVRQAPGQGLEWIGNIYPSYIYTNYNQEFKDKVTLTVDESTSTAYMELSSLRSEDTAVYYCTRSPYGYDEYGLDYWGQGTTVTVSSGGGGSGGGGSGGGGSDIQLTQSPSSLSASVGDRVTMTCKSSQSLLNTRNQKNYLTWYQQKPGKAPKLLIYWASTRESGVPSRFSGSGSGTDFTLTISSLQPEDFATYYCQNDYVYPLTFGQGTKLEIKIEVMYPPPYLDNEKSNGTIIHVKGKHLCPSPLFPGPSKPFWVLVVVGGVLACYSLLVTVAFIIFWVRSKRSRLLHSDYMNMTPRRPGPTRKHYQPYAPPRDFAAYRSRVKFSRSADAPAYQQGQNQLYNELNLGRREEYDVLDKRRGRDPEMGGKPRRKNPQEGLYNELQKDKMAEAYSEIGMKGERRRGKGHDGLYQGLSTATKDTYDALHMQALPPR
Take B1: the binding entry is given as “binds”.
